The values below are quoted from earlier work in patent US7160867B2 (Isotechnika, Inc., priority 2003, dated 2007).

The conditions of this data set: cited from earlier work.

Consider `CO[C@H]1C[C@@H]2CC[C@@H](C)[C@@](O)(O2)C(=O)C(=O)N2CCCC[C@H]2C(=O)O[C@H]([C@H](C)C[C@@H]2CC[C@@H](O)[C@H](OC)C2)CC(=O)[C@H](C)/C=C(\C)[C@@H](O)[C@@H](OC)C(=O)[C@H](C)C[C@H](C)/C=C/C=C/C=C/1C` [Rapamycin], for which the solubility in water entry is on record as “sparingly soluble”.
